Assay results taken from patent US20190091290A1, “MACROPHAGE STIMULATION IN CD47 BLOCKADE THERAPY” (TRILLIUM THERAPEUTICS INC., priority 2016, published 2019).
For at least one compound, name, drawing or mass did not settle the structure.

What was measured:
[1] = test system: CD64; assay: FcγR (CD16, CD32, CD64) expression on re-polarized M0, M2a and M2b macrophages by flow cytometry; format: cell-based, human; conditions: overnight stimulation with the agent; FIG. 4
Source text: Heparinized whole blood was obtained from normal healthy human donors (Biological Specialty Corporation) and informed consent was obtained from all donors. Peripheral blood mononuclear cells (PBMCs) were isolated over Ficoll-Paque Plus density gradient (GE Healthcare) and CD14+ monocytes were isolated from PBMCs by positive selection using CD14 antibody-coated MicroBead separation (Miltenyi Biotec). Monocytes were differentiated into macrophages by culturing for at least 10 days in X-Vivo-15 media (Lonza) supplemented with 20 ng/mL M-CSF (PeproTech). Macrophages were washed and were polarized into M0, M2a, and M2b by culturing one day with 20 ng/mL M-CSF, 20 ng/mL IL-4 (PeproTech) or 50 ug/mL heat aggregated human gamma globulin (HAGG) and 20 ng/mL IL-1β (PeproTech), respectively. One day following polarization, polarization media was washed off, and cells were treated with 20 ng/mL IFN-γ (Peprotech), 1000 U/mL IFNa2a (PBL Assay Science), 20 ng/mL IL-10 (PeproTech), 10 ug/mL Poly (I:C) (InvivoGen), 1 ug/mL LPS (MDBiosciences), 1 ug/mL R848 (InvivoGen), or 10 ug/mL ODN2395 CpG (InvivoGen) overnight. […] Cells were washed and resuspended in stabilizing fixative (BD Biosciences), and data was acquired on a FACSVerse flow cytometry machine, and data was analyzed using FlowJo software (Treestar Inc.). […]

[2] = test system: M0, M2a and M2b macrophages; assay: Phagocytic response to SIRPaFc after re-polarization of M0, M2a and M2b macrophages; format: cell-based, human; conditions: overnight treatment with the agent; FIGS. 3A-3C
Source text: Heparinized whole blood was obtained from normal healthy human donors (Biological Specialty Corporation) and informed consent was obtained from all donors. Peripheral blood mononuclear cells (PBMCs) were isolated over Ficoll-Paque Plus density gradient (GE Healthcare) and CD14+ monocytes were isolated from PBMCs by positive selection using CD14 antibody-coated MicroBead separation (Miltenyi Biotec). Monocytes were differentiated into macrophages by culturing for at least 10 days in X-Vivo-15 media (Lonza) supplemented with 20 ng/mL M-CSF (PeproTech). Macrophages were washed and were polarized into M0, M2a, and M2b by culturing one day with 20 ng/mL M-CSF, 20 ng/mL IL-4 (PeproTech) or 50 ug/mL heat aggregated human gamma globulin (HAGG) and 20 ng/mL IL-1β (PeproTech), respectively. One day following polarization, polarization media was washed off, and cells were treated with 20 ng/mL IFN-γ (PeproTech), 1000 U/mL IFNα2a (PBL Assay Science), 20 ng/mL IL-10 (PeproTech), 10 ug/mL Poly (I:C) (InvivoGen), 1 ug/mL LPS (MDBiosciences), 1 ug/mL R848 (InvivoGen), or 10 ug/mL ODN2395 CpG (InvivoGen) overnight. […] Cells were acquired on a FACSVerse flow cytometer, and data was analyzed using FlowJo software (Treestar Inc.). […] Phagocytosis was assessed as the % of macrophages that were VPD450+. Statistical significance was calculated by unpaired t-test vs isotype control using GraphPad Prism software.

CCOCc1nc2c(N)nc3ccccc3c2n1CC(C)(C)O [R848]
expression of CD64 on M0, M2a and M2b macrophages after repolarization [1]: not | responsiveness to SIRPaFc (phagocytosis of Toledo cells) of M0, M2a and M2b macrophages after repolarization [2]: increased
